Measurements reported in patent US20250208146A1 (UNIVERSITY OF FLORIDA RESEARCH FOUNDATION, published 2025).
These are yes or no findings as the source states them, for the method shown. Some binding calls cover weakened binding; strength is not graded here.

By UniProt entry, the sequences of proteins in these tests, tags left out. Where a name states a change or a piece, a line headed by the entry shows the natural chain unless it says otherwise.
UniProt P01009: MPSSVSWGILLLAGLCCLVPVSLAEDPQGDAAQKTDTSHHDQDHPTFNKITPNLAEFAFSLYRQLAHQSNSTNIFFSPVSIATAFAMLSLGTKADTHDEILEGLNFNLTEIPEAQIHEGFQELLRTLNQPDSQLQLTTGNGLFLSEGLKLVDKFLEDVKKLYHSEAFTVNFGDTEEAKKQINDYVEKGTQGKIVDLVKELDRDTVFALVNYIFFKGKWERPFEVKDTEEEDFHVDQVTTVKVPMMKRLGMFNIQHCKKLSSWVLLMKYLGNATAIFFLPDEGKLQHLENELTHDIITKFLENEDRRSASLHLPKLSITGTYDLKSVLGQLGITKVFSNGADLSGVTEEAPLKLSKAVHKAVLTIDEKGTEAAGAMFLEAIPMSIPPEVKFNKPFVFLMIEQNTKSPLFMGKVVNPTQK

Assays:
[1] = target: M Alpha-1 Antitrypsin (M-AAT) (human) (UniProt P01009); assay: dot blot, purified M-AAT (batch M1-2012, Zemaira, 3 ug by paragraph 67) on nitrocellulose, probed with the purified M-specific mAb, goat anti-mouse IgG-HRP, TBS-T
[2] = target: M Alpha-1 Antitrypsin (M-AAT) (human) (UniProt P01009); assay: Western blot (denaturing SDS-PAGE, nitrocellulose) of purified M-AAT probed with the M-specific mAb, goat anti-mouse IgG-HRP, chemiluminescence
[3] = target: M Alpha-1 Antitrypsin (M-AAT) (human) (UniProt P01009); assay: native (non-denaturing) PAGE Western blot of M/M plasma, 0.161 ug AAT per lane, probed with the purified M-specific mAb, goat anti-mouse IgG-HRP, HEPES buffers without Tween 20
[4] = target: M Alpha-1 Antitrypsin (M-AAT) (human) (UniProt P01009); assay: dot blot, purified proteins (FIG. 3)
[5] = target: M Alpha-1 Antitrypsin (M-AAT) (human) (UniProt P01009); assay: dot blot, 3 µg purified protein, TBS-T (FIG. 3)
[6] = target: M Alpha-1 Antitrypsin (M-AAT) (human) (UniProt P01009); assay: sandwich ELISA, M-AAT specific monoclonal adsorbed to wells, purified M-AAT or plasma/serum
[7] = target: M Alpha-1 Antitrypsin (M-AAT) (human) (UniProt P01009); assay: Western blot, purified proteins probed with purified antibody (FIG. 1)
[8] = target: M Alpha-1 Antitrypsin (M-AAT) (human) (UniProt P01009); assay: native Western blot of plasma (FIG. 4)
[9] = target: M Alpha-1 Antitrypsin (M-AAT) (human) (UniProt P01009); assay: Western blot, denaturing SDS-PAGE, purified proteins (FIG. 1)

Measured: binding

B1: mouse monoclonal anti-M-AAT antibody (MAAT mAb) (antibody, V domains shown)
VH: QVQLQQPGAELVKPGAPVKLSCKASGYIFTSYWMNWVKQRPGRGLEWIGKIDPSDSETHYNQKFKDKATLTVDKSSSTAFIQLSSLTSEDSAVYYCVRSPGGYPDWWGQGTTLTVSS
VL: DITMTQSPSSIYASLGKRVTITCKASQDINSYLSWFQQKPGKSPKTLIYRANRLVDGVPSRFSGSGSGQDYSLTISSLEYEDMGIYYCLQYDEFPYTFGGGTKLEIKR
binds: all assays above
